# Reference: the supplement of paper PMC8728848
# Some of the results follow.
# Tests used:
# Experiment in all cases: glycan array binding signal (z-score within array); higher = stronger binding
# Details in all cases: glycan notation: IUPAC condensed, linker removed
# GlcNAc(b1-3)Gal(b1-4)Glc = biological target: GlcNAc(b1-3)Gal(b1-4)Glc
# In short: (§1)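 Glycan array data were curated from 3228 arrays in the Consortium for Functional Glycomics database and kept only where the protein sequence was available. Glycan names were converted to IUPAC-condensed notation, and columns mapping to the same glycan were averaged. The binding signal is a within-array Z-score, averaged across arrays of the same protein sequence at different concentrations or buffers and across linkers. Negative Z-scores can be read as non-binding.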
# [1] = biological target: GlcNAc(b1-3)Gal(b1-4)GlcNAc
# In short: as §1
# [2] = biological target: GlcNAc(b1-3)Gal(b1-4)GlcNAc(b1-2)Man(a1-3)[GlcNAc(b1-3)Gal(b1-4)GlcNAc(b1-2)Man(a1-6)]Man(b1-4)GlcNAc(b1-4)GlcNAc
# In short: as §1
# [3] = biological target: GlcNAc(b1-3)Gal(b1-4)GlcNAc(b1-2)Man(a1-3)[GlcNAc(b1-3)Gal(b1-4)GlcNAc(b1-2)Man(a1-6)]Man(b1-4)GlcNAc(b1-4)[Fuc(a1-6)]GlcNAc
# In short: as §1
# [4] = biological target: GlcNAc(b1-3)Gal(b1-4)GlcNAc(b1-2)[GlcNAc(b1-3)Gal(b1-4)GlcNAc(b1-6)]Man(a1-6)[GlcNAc(b1-3)Gal(b1-4)GlcNAc(b1-2)Man(a1-3)]Man(b1-4)GlcNAc(b1-4)GlcNAc
# In short: as §1
# [5] = biological target: GlcNAc(b1-3)Gal(b1-4)GlcNAc(b1-3)Gal(b1-4)GlcNAc
# In short: as §1
# [6] = biological target: GlcNAc(b1-3)Gal(b1-4)GlcNAc(b1-3)Gal(b1-4)GlcNAc(b1-2)Man(a1-3)[GlcNAc(b1-3)Gal(b1-4)GlcNAc(b1-3)Gal(b1-4)GlcNAc(b1-2)Man(a1-6)]Man(b1-4)GlcNAc(b1-4)GlcNAc
# In short: as §1
# [7] = biological target: GlcNAc(b1-3)Gal(b1-4)GlcNAc(b1-3)Gal(b1-4)GlcNAc(b1-2)Man(a1-3)[GlcNAc(b1-3)Gal(b1-4)GlcNAc(b1-3)Gal(b1-4)GlcNAc(b1-2)Man(a1-6)]Man(b1-4)GlcNAc(b1-4)[Fuc(a1-6)]GlcNAc
# In short: as §1
# [8] = biological target: GlcNAc(b1-3)Gal(b1-4)GlcNAc(b1-3)Gal(b1-4)GlcNAc(b1-2)[GlcNAc(b1-3)Gal(b1-4)GlcNAc(b1-3)Gal(b1-4)GlcNAc(b1-6)]Man(a1-6)[GlcNAc(b1-3)Gal(b1-4)GlcNAc(b1-3)Gal(b1-4)GlcNAc(b1-2)Man(a1-3)]Man(b1-4)GlcNAc(b1-4)[Fuc(a1-6)]GlcNAc
# In short: as §1
# [9] = biological target: GlcNAc(b1-3)Gal(b1-4)GlcNAc(b1-3)Gal(b1-4)GlcNAc(b1-3)Gal(b1-4)GlcNAc(b1-2)Man(a1-3)[GlcNAc(b1-3)Gal(b1-4)GlcNAc(b1-3)Gal(b1-4)GlcNAc(b1-3)Gal(b1-4)GlcNAc(b1-2)Man(a1-6)]Man(b1-4)GlcNAc(b1-4)GlcNAc
# In short: as §1
# [10] = biological target: GlcNAc(b1-3)Gal(b1-4)GlcNAc(b1-3)Gal(b1-4)GlcNAc(b1-3)Gal(b1-4)GlcNAc(b1-2)Man(a1-3)[GlcNAc(b1-3)Gal(b1-4)GlcNAc(b1-3)Gal(b1-4)GlcNAc(b1-3)Gal(b1-4)GlcNAc(b1-2)Man(a1-6)]Man(b1-4)GlcNAc(b1-4)[Fuc(a1-6)]GlcNAc
# In short: as §1
# [11] = biological target: GlcNAc(b1-3)Gal(b1-4)GlcNAc(b1-3)Gal(b1-4)GlcNAc(b1-3)Gal(b1-4)GlcNAc(b1-2)[GlcNAc(b1-3)Gal(b1-4)GlcNAc(b1-3)Gal(b1-4)GlcNAc(b1-3)Gal(b1-4)GlcNAc(b1-6)]Man(a1-6)[GlcNAc(b1-3)Gal(b1-4)GlcNAc(b1-3)Gal(b1-4)GlcNAc(b1-3)Gal(b1-4)GlcNAc(b1-2)Man(a1-3)]Man(b1-4)GlcNAc(b1-4)[Fuc(a1-6)]GlcNAc
# In short: as §1
# [12] = biological target: GlcNAc(b1-3)Gal(b1-4)GlcNAc(b1-3)Gal(b1-4)GlcNAc(b1-3)Gal(b1-4)GlcNAc(b1-3)Gal(b1-4)GlcNAc(b1-2)Man(a1-3)[GlcNAc(b1-3)Gal(b1-4)GlcNAc(b1-3)Gal(b1-4)GlcNAc(b1-3)Gal(b1-4)GlcNAc(b1-3)Gal(b1-4)GlcNAc(b1-2)Man(a1-6)]Man(b1-4)GlcNAc(b1-4)GlcNAc
# In short: as §1
# [13] = biological target: GlcNAc(b1-3)Gal(b1-4)GlcNAc(b1-3)Gal(b1-4)GlcNAc(b1-3)Gal(b1-4)GlcNAc(b1-3)Gal(b1-4)GlcNAc(b1-2)Man(a1-3)[GlcNAc(b1-3)Gal(b1-4)GlcNAc(b1-3)Gal(b1-4)GlcNAc(b1-3)Gal(b1-4)GlcNAc(b1-3)Gal(b1-4)GlcNAc(b1-2)Man(a1-6)]Man(b1-4)GlcNAc(b1-4)[Fuc(a1-6)]GlcNAc
# In short: as §1
# [14] = biological target: GlcNAc(b1-3)Gal(b1-4)GlcNAc(b1-3)Gal(b1-4)GlcNAc(b1-3)Gal(b1-4)GlcNAc(b1-3)Gal(b1-4)GlcNAc(b1-2)[GlcNAc(b1-3)Gal(b1-4)GlcNAc(b1-3)Gal(b1-4)GlcNAc(b1-3)Gal(b1-4)GlcNAc(b1-3)Gal(b1-4)GlcNAc(b1-6)]Man(a1-6)[GlcNAc(b1-3)Gal(b1-4)GlcNAc(b1-3)Gal(b1-4)GlcNAc(b1-3)Gal(b1-4)GlcNAc(b1-3)Gal(b1-4)GlcNAc(b1-2)Man(a1-3)]Man(b1-4)GlcNAc(b1-4)[Fuc(a1-6)]GlcNAc
# In short: as §1
# [15] = biological target: GlcNAc(b1-3)Gal(b1-4)GlcNAc(b1-3)Gal(b1-4)GlcNAc(b1-3)GalNAc
# In short: as §1
# [16] = biological target: GlcNAc(b1-3)Gal(b1-4)GlcNAc(b1-3)GalNAc
# In short: as §1
# [17] = biological target: GlcNAc(b1-3)Gal(b1-4)GlcNAc(b1-3)[GlcNAc(b1-3)Gal(b1-4)GlcNAc(b1-3)]GalNAc
# In short: as §1
# [18] = biological target: GlcNAc(b1-3)Gal(b1-4)GlcNAc(b1-6)[Gal(b1-3)]GalNAc
# In short: as §1
# [19] = biological target: GlcNAc(b1-3)Gal(b1-4)GlcNAc(b1-6)[GlcNAc(b1-3)Gal(b1-3)]GalNAc
# In short: as §1
# [20] = biological target: GlcNAc(b1-3)Gal(b1-4)GlcNAc(b1-6)[GlcNAc(b1-3)]Gal(b1-4)GlcNAc
# In short: as §1
# GlcNAc(b1-3)GalNAc = biological target: GlcNAc(b1-3)GalNAc
# In short: as §1
# GlcNAc(b1-3)Man = biological target: GlcNAc(b1-3)Man
# In short: as §1
# [21] = biological target: GlcNAc(b1-3)[GlcNAc(b1-4)][GlcNAc(b1-6)]GlcNAc
# In short: as §1
# [22] = biological target: GlcNAc(b1-3)[GlcNAc(b1-6)]Gal(b1-4)GlcNAc
# In short: as §1
# [23] = biological target: GlcNAc(b1-3)[GlcNAc(b1-6)]GalNAc
# In short: as §1
# [24] = biological target: GlcNAc(b1-4)Gal(b1-4)GlcNAc
# In short: as §1
# GlcNAc(b1-4)GlcNAc = biological target: GlcNAc(b1-4)GlcNAc
# In short: as §1
# [25] = biological target: GlcNAc(b1-4)GlcNAc(b1-4)GlcNAc
# In short: as §1
# [26] = biological target: GlcNAc(b1-4)GlcNAc(b1-4)GlcNAc(b1-4)GlcNAc(b1-4)GlcNAc
# In short: as §1
# [27] = biological target: GlcNAc(b1-4)GlcNAc(b1-4)GlcNAc(b1-4)GlcNAc(b1-4)GlcNAc(b1-4)GlcNAc
# In short: as §1
# [28] = biological target: GlcNAc(b1-4)[GlcNAc(b1-6)]GalNAc
# In short: as §1
# [29] = biological target: GlcNAc(b1-6)Gal(b1-4)GlcNAc
# In short: as §1
# GlcNAc(b1-6)GalNAc = biological target: GlcNAc(b1-6)GalNAc
# In short: as §1
# [30] = biological target: GlcNAc6S(b1-3)Gal(b1-4)GlcNAc
# In short: as §1
# Kdn(a2-3)Gal(b1-3)GalNAc = biological target: Kdn(a2-3)Gal(b1-3)GalNAc
# In short: as §1
# Kdn(a2-3)Gal(b1-3)GlcNAc = biological target: Kdn(a2-3)Gal(b1-3)GlcNAc
# In short: as §1
# Kdn(a2-3)Gal(b1-4)Glc = biological target: Kdn(a2-3)Gal(b1-4)Glc
# In short: as §1
# Kdn(a2-3)Gal(b1-4)GlcNAc = biological target: Kdn(a2-3)Gal(b1-4)GlcNAc
# In short: as §1
# [31] = biological target: Kdn(a2-3)Gal(b1-4)[Fuc(a1-3)]GlcNAc
# In short: as §1
# Kdn(a2-6)Gal(b1-4)GlcNAc = biological target: Kdn(a2-6)Gal(b1-4)GlcNAc
# In short: as §1
# [32] = biological target: Man(a1-2)Man(a1-2)Man(a1-3)Man
# In short: as §1
# [33] = biological target: Man(a1-2)Man(a1-2)Man(a1-6)[Man(a1-3)]Man
# In short: as §1
# Man(a1-2)Man(a1-3)Man = biological target: Man(a1-2)Man(a1-3)Man
# In short: as §1
# [34] = biological target: Man(a1-2)Man(a1-3)[Man(a1-2)Man(a1-6)]Man
# In short: as §1
binder,measurement,setting,value
Vd7LysM (Verticillium dahliae) (protein) RRGPEPKYPPAAGTSSYCSYWVDYEGDKSCSRVLEDNVVVLKDFARWNPTVGADCSGIKAGNSYCVEAFGEPEPIEVTTTTRAATTTTQPTATTTTFANGIATPQPTQSGMVTNCNKFHWIAEGVSCSQVISFQKITLADFVKWNPSVKSDCSGMWAGVNVCVGVVGSSTDTAKPTTTAPSNGVVTPQPTQPSMVTNCNKFHWIAKGVTCQQVISYQKISLADFVKWNPSVLSDCSGMWAEVQVCVGVIGSTPTTLATTTTTAGNGVSTPLPTQPGMVTNCAKFHWVAKGVTCNQIYSFQKITLEQFVSYNPTVKSDCSGMQAEVQVCVGLIAGTTPTTTRPPTTTAPGNGVSTPQPTQPGMVTNCAKFHWVAKGVTCNQIYSFQKITLEQFVSFNPTVKSDCTGMQAEVNVCVGLIGGNPTPTQTGNGIATPTPIQPGMVSNCKKFHWIAQGVTCQQVISFQKITLADFVKWNTGVGSDCRTMWAETNVCVGV,glycan array binding signal (z-score),GlcNAc(b1-3)Gal(b1-4)Glc,1.05
same,glycan array binding signal (z-score),[1],0.117
same,glycan array binding signal (z-score),[2],2.67
same,glycan array binding signal (z-score),[3],0.334
same,glycan array binding signal (z-score),[4],0.139
same,glycan array binding signal (z-score),[5],1.61
same,glycan array binding signal (z-score),[6],1.16
same,glycan array binding signal (z-score),[7],-0.929
same,glycan array binding signal (z-score),[8],2.72
same,glycan array binding signal (z-score),[9],-1.02
same,glycan array binding signal (z-score),[10],0.992
same,glycan array binding signal (z-score),[11],2.29
same,glycan array binding signal (z-score),[12],-0.184
same,glycan array binding signal (z-score),[13],0.619
same,glycan array binding signal (z-score),[14],2.34
same,glycan array binding signal (z-score),[15],0.041
same,glycan array binding signal (z-score),[16],-1.01
same,glycan array binding signal (z-score),[17],0.165
same,glycan array binding signal (z-score),[18],0.419
same,glycan array binding signal (z-score),[19],-0.734
same,glycan array binding signal (z-score),[20],0.313
same,glycan array binding signal (z-score),GlcNAc(b1-3)GalNAc,-1.38
same,glycan array binding signal (z-score),GlcNAc(b1-3)Man,0.604
same,glycan array binding signal (z-score),[21],-0.865
same,glycan array binding signal (z-score),[22],0.506
same,glycan array binding signal (z-score),[23],0.981
same,glycan array binding signal (z-score),[24],0.04
same,glycan array binding signal (z-score),GlcNAc(b1-4)GlcNAc,-0.831
same,glycan array binding signal (z-score),[25],-0.545
same,glycan array binding signal (z-score),[26],2.03
same,glycan array binding signal (z-score),[27],2.3
same,glycan array binding signal (z-score),[28],-1.4
same,glycan array binding signal (z-score),[29],1.37
same,glycan array binding signal (z-score),GlcNAc(b1-6)GalNAc,-0.499
same,glycan array binding signal (z-score),[30],0.676
same,glycan array binding signal (z-score),Kdn(a2-3)Gal(b1-3)GalNAc,3.09
same,glycan array binding signal (z-score),Kdn(a2-3)Gal(b1-3)GlcNAc,0.51
same,glycan array binding signal (z-score),Kdn(a2-3)Gal(b1-4)Glc,0.199
same,glycan array binding signal (z-score),Kdn(a2-3)Gal(b1-4)GlcNAc,-0.6
same,glycan array binding signal (z-score),[31],-0.911
same,glycan array binding signal (z-score),Kdn(a2-6)Gal(b1-4)GlcNAc,-0.881
same,glycan array binding signal (z-score),[32],-0.139
same,glycan array binding signal (z-score),[33],1.74
same,glycan array binding signal (z-score),Man(a1-2)Man(a1-3)Man,-0.119
same,glycan array binding signal (z-score),[34],0.727

# Exported with bars between the fields: part of the list above.
binder | measurement | setting | value
Vd7LysM (Verticillium dahliae) (protein) RRGPEPKYPPAAGTSSYCSYWVDYEGDKSCSRVLEDNVVVLKDFARWNPTVGADCSGIKAGNSYCVEAFGEPEPIEVTTTTRAATTTTQPTATTTTFANGIATPQPTQSGMVTNCNKFHWIAEGVSCSQVISFQKITLADFVKWNPSVKSDCSGMWAGVNVCVGVVGSSTDTAKPTTTAPSNGVVTPQPTQPSMVTNCNKFHWIAKGVTCQQVISYQKISLADFVKWNPSVLSDCSGMWAEVQVCVGVIGSTPTTLATTTTTAGNGVSTPLPTQPGMVTNCAKFHWVAKGVTCNQIYSFQKITLEQFVSYNPTVKSDCSGMQAEVQVCVGLIAGTTPTTTRPPTTTAPGNGVSTPQPTQPGMVTNCAKFHWVAKGVTCNQIYSFQKITLEQFVSFNPTVKSDCTGMQAEVNVCVGLIGGNPTPTQTGNGIATPTPIQPGMVSNCKKFHWIAQGVTCQQVISFQKITLADFVKWNTGVGSDCRTMWAETNVCVGV | glycan array binding signal (z-score) | [3] | 0.334
same | glycan array binding signal (z-score) | [15] | 0.041
same | glycan array binding signal (z-score) | Kdn(a2-6)Gal(b1-4)GlcNAc | -0.881
